Data as given in patent US20060135770A1, “PARP inhibitors” (Kudos Pharmaceuticals Ltd., priority 2004, published 2006).
Some results were stated once for a whole list of compounds, not compound by compound.

What follows are compounds tested on HeLa cells (assay: Potentiation Factor (PF50) of MMS growth inhibition, SRB assay). Settings: 200 nM compound, ratio of IC50 of control cell growth to IC50 of cell growth + PARP inhibitor, in presence of MMS.
Format: cell-based

SMILES | PF50 at 200 nM
CC(Oc1ccccc1)C(=O)N1CCN(C(=O)c2cc(CCOc3ccccc3C(N)=O)ccc2F)CC1 (stereo not drawn) [Compound 188] | at least 1.5

Same assay, conditions: 500 nM compound, ratio of IC50 of control cell growth to IC50 of cell growth + PARP inhibitor, in presence of MMS

SMILES | PF50 at 500 nM
CC(Oc1ccccc1)C(=O)N1CCN(C(=O)c2cccc(COc3ccccc3C(N)=O)c2)CC1 (stereo not drawn) [Compound 53] | at least 1.5
NC(=O)c1ccccc1OCc1ccc(F)c(C(=O)N2CCN(C(=O)Nc3ccccc3F)CC2)c1 [Compound 72] | at least 1.5
COc1ccccc1NC(=O)N1CCN(C(=O)c2cc(COc3ccccc3C(N)=O)ccc2F)CC1 [Compound 73] | at least 1.5
Cc1cc(C)cc(NC(=O)N2CCN(C(=O)c3cc(COc4ccccc4C(N)=O)ccc3F)CC2)c1 [Compound 74] | at least 1.5
NC(=O)c1cc(F)ccc1OCc1ccc(F)c(C(=O)N2CCN(C(=O)C3CCCC3)CC2)c1 [Compound 216] | at least 1.5
